Literature values as cited in patent publication US20140248280A1, “ANTI-ERBB3 ANTIBODIES IN COMBINATION WITH PACLITAXEL FOR TREATMENT OF GYNECOLOGICAL CANCERS” (SANOFI, priority 2011, published 2014).

solubility in water: insoluble in water
Structure (SMILES): CC(=O)O[C@H]1C(=O)[C@@]2(C)[C@H]([C@H](OC(=O)c3ccccc3)[C@]3(O)C[C@H](OC(=O)[C@H](O)[C@@H](NC(=O)c4ccccc4)c4ccccc4)C(C)=C1C3(C)C)[C@]1(OC(C)=O)CO[C@@H]1C[C@@H]2O [Paclitaxel]
